Laboratory results reported in PMC7862700.
The entries are a selection whose mix differs from that of the whole data set. For some assays here: At the low end of the ranking the order means little. This is one part of the list. For some assays here: The exact form of the protein is not confirmed.

Key:
[1] = target: T1, ETS1 (UniProt P14921); assay: DAPPL (digital affinity profiling via proximity ligation, sequencing); conditions: 10 mM Tris-HCl pH 7.5, 50 mM NaCl, 1 mM DTT, 4% glycerol, room temperature, 30 min; GST-TFs on glutathione beads, 16-mer random dsDNA library, 0.1% …; high values mean tight binding; double strand, one strand shown; scale: fold enrichment (6-mer frequency, TF over GST control)
T1 sequence: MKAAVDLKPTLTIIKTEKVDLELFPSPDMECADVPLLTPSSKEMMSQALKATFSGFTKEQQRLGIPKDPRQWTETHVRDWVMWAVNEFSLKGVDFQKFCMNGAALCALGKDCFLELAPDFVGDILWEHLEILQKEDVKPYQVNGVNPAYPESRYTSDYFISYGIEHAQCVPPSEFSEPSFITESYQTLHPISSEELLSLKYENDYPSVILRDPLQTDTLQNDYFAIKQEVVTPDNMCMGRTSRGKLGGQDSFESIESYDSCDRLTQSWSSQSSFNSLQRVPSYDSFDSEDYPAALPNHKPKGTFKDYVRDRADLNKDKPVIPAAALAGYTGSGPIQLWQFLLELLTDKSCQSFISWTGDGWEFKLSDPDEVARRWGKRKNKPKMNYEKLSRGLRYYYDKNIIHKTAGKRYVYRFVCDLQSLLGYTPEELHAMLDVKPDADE

[2] = target: T2, SPDEF (UniProt O95238); assay: as above; conditions: 10 mM Tris-HCl pH 7.5, 50 mM NaCl, 1 mM DTT, 4% glycerol, room temperature, 30 min; GST-TFs on glutathione beads, 16-mer random dsDNA library, 0.1% …; high values mean tight binding; double strand, one strand shown; scale: fold enrichment (6-mer frequency, TF over GST control)
T2 sequence: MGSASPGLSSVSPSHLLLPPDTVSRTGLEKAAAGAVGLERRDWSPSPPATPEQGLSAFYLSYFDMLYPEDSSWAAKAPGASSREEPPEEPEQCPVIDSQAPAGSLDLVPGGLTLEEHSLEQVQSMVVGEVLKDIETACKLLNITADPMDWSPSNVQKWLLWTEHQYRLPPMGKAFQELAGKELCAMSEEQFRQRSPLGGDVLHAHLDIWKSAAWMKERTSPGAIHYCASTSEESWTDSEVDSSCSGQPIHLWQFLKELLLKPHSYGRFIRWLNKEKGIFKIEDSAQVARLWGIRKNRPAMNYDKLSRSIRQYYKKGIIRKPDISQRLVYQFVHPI

Row | Sequence | binding signal [1] | binding signal [2]
1 | ATAGAT | 1.26 | 1.27
2 | GAAACG | 1.27 | 1.23
3 | GGCCCT | 1.03 | 0.927
4 | GCCCTC | 1.16 | 1.08
5 | ACAAAG | 1.03 | 0.977
6 | CCATTA | 1.12 | 0.959
7 | ATGGCA | 1.32 | 1.1
8 | ATTATC | 1.44 | 1.34
9 | ATCGTT | 1.06 | 0.981
10 | CTGCTC | 1.32 | 1.26

Copied from the list:
Value of CTGCTC under binding signal [2]: 1.26
Value of ACAAAG under binding signal [1]: 1.03
